In all, about 2,400 compounds went through this assay and about 20 (0.8%) were called active.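 The calls were made as follows: active = AC50 no more than ten times the highest tested concentration, or full inhibition at every dose giving a flat fit (cut at about 30 µM in these data); inconclusive = flat fit with activity between 30% and 70%, or poor-quality invalid fit; inactive = AC50 more than ten times the top tested dose.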 This is one part of the list.
assay: inhibitors of ADP-Glo detection reagents, dose response, artefact control for GSK-3a inhibitor project, biochemical, luminescence, cell-free, homogeneous (AID 463205); details: 5 uM ADP;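 also: kinase-free counter-screen against the ADP-Glo detection reagents only; potency is for inhibitors that reduce the luminescence signal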

AC50, active:
Cn1c(N=Nc2ccccc2)nc2ccccc21 27.9 µM

AC50, inactive:
O=C(O)c1cc(-c2ccc(/C=N/N3C(=O)C4C5C=CC(C6CC56)C4C3=O)o2)ccc1Cl (centres undefined) > 30 µM
Cc1cc(NC(=O)c2sc(Nc3ccc(F)cc3)nc2N)no1 > 30 µM
C[C@H](NC(=O)c1nc[nH]c1C(=O)NC1CCNCC1)C(=O)OCc1ccccc1 > 30 µM
CCOC(=O)c1ccc(N2CSC3=C(C#N)C(c4cccs4)CC(=O)N3C2)cc1 (centres undefined) > 30 µM
CC(=O)c1cccc(-c2ccc3c(=O)[nH]c(Nc4ccccc4)cc3c2)c1 > 30 µM
Clc1ccc(Nc2ncn[nH]2)cc1 > 30 µM
COc1ccc2nc(C)cc(N3CCN(S(=O)(=O)c4ccccc4F)CC3)c2c1 > 30 µM
CCn1ncc([N+](=O)[O-])c1C(=O)N1CCCC1 > 30 µM
COc1ccccc1N1CCN(CCC(=O)Nc2cccc(Cl)c2)CC1 > 30 µM
COC(=O)c1nnn(-c2ccccc2)c1N > 30 µM
Cc1onc(-c2ccccc2Cl)c1C(=O)Nc1ccc(-c2cn3cccnc3n2)cc1 > 30 µM
C[n+]1cccc(/C=N/Nc2nc(Cl)c(C#N)c(Cl)c2Cl)c1 > 30 µM
Cc1ccc(NC(=O)CSc2nnc(-c3ccncc3)s2)cc1 > 30 µM
O=C1CCCC/C1=C\Nc1ccc(O)cc1 > 30 µM
CNc1nc(N)c([N+](=O)[O-])c(N2CCCCCC2)n1 > 30 µM
COc1ccc(CCNC2=C(Cl)C(=O)N(Cc3ccccc3)C2=O)cc1OC > 30 µM
Cc1ccc(C(=O)c2c(NC(=O)CSc3nnc(N)s3)sc3c2CCCC3)cc1 > 30 µM
CCS(=O)(=O)N1CCN(c2ccnc3cc(Cl)ccc23)CC1 > 30 µM
O=c1[nH]c2c(s1)C(c1ccc(O)cc1)C1C3CCC(C3)C1S2 (centres undefined) > 30 µM
COC1(OC)N=C(N)C2(C#N)C(c3ccc4c(c3)OCO4)C12C#N (centres undefined) > 30 µM
O=C(NCc1ccc2c(c1)OCO2)c1cc(COc2c(F)cccc2F)on1 > 30 µM
Cc1oc2ccc(O)c(CN(C)C)c2c1C(=O)c1ccccc1 > 30 µM
COc1ccc(-c2ncncc2-c2ccc(OC)c(OC)c2)c(O)c1 > 30 µM
Nc1ncnc2c1ncn2[C@H]1C[C@H](O)[C@@H](CO)O1 > 30 µM
O=C1CCCN1CCCNc1ncccc1[N+](=O)[O-] > 30 µM
O=C(NCCCn1ccnc1)C(F)(F)C(F)(F)C(=O)NCCCn1ccnc1 > 30 µM
O=C1CC(/C=C/c2ccncc2)=Nc2ccccc2N1 > 30 µM
NC(=O)c1c(NC(=O)CN2C(=O)NC(Cc3ccccc3)C2=O)sc2c1CCC2 (centres undefined) > 30 µM
O=C(Nc1ncc([N+](=O)[O-])s1)c1ccc2c(c1)OCO2 > 30 µM
Cc1nc(SCC(=O)NCC2CCCO2)c2c3c(sc2n1)CCC3 (centres undefined) > 30 µM
Cc1ccccc1N=Nc1c(O)[nH]c2ccccc12 > 30 µM
O=C(CSCc1ccccn1)Nc1ccccc1 > 30 µM
C[C@H](CO)N1C[C@H](C)[C@@H](CN(C)S(=O)(=O)c2ccc(F)cc2)Oc2c(NC(=O)Nc3ccccc3)cccc2C1=O > 30 µM
N#CC1=C2SCN(Cc3ccccc3)CN2C(=O)CC1c1ccccc1F (centres undefined) > 30 µM
Cc1ccc2nc(Cl)c(/C=N/Nc3ccc(C(=O)O)cc3)cc2c1 > 30 µM
Cc1nc2c(C)cccn2c1/C(O)=C1\C(=O)C(=O)N(CCN2CCOCC2)C1c1cccs1 (centres undefined) > 30 µM
COc1cccc(-c2c(C(=O)N/N=C/c3ccoc3)nnn2-c2nonc2N)c1 > 30 µM
CCc1ccc(/C=N/NC(=O)c2nnn(-c3nonc3N)c2C(C)C)cc1 > 30 µM
COCCCNc1nc2nonc2nc1NCCSC > 30 µM
Cc1nnc(SCC(=O)Nc2ccc(Br)cn2)[nH]c1=O > 30 µM
Cc1cc(N2CCN(c3ccccc3)CC2)n2ncnc2n1 > 30 µM
CCN1/C(=C/C(C)=O)Sc2ccc(OC)cc21 > 30 µM
O=C(Nc1c(C(=O)C2CC2)oc2ccccc12)c1ccc(Cl)cc1 > 30 µM
Cc1cccc(-c2nnc3n2N=C(c2ccc(Br)cc2)CS3)c1 > 30 µM
Nc1nonc1-n1nnc(C(=O)N/N=C/c2ccco2)c1-c1ccccc1 > 30 µM
CC(=O)Nc1sc2c(c1C(N)=O)CCCC2 > 30 µM
CC1(C)CC(=O)C(C=NCCc2ccc(O)cc2)=C(O)C1 > 30 µM
Cc1ccc(Nc2nc(-c3cccnc3)nc3ccccc23)cc1 > 30 µM
CCN(CC)c1ccc(C2C(C(=O)OC(C)C)C(=O)CC(C)(O)C2C(=O)OC(C)C)cc1 (centres undefined) > 30 µM
O=C(CCSCCc1ccccn1)Nc1ccc(Cl)cn1 > 30 µM
O=C1c2cnc3nc(SCc4ccccc4)nn3c2CC2c3ccccc3CCN12 (centres undefined) > 30 µM
S=c1[nH]nc(-c2cc3c(s2)-c2ccccc2CC3)o1 > 30 µM
CCN(CC)c1ccc(/C=C2\NC(=O)NC2=O)cc1 > 30 µM
CC(C)(C)C(=O)NC(=S)Nc1sc2c(c1C(N)=O)CCC2 > 30 µM
CCOC(=O)c1cc(CC)sc1NC(=O)C1CC1 > 30 µM
c1ccc2c(c1)ccc1nnc(SCc3ccc4c(c3)OCO4)n12 > 30 µM
COC(=O)C1(C#N)C(c2ccccc2)C1(C(=O)OC)C(=O)OC (centres undefined) > 30 µM
c1ccc2sc(-c3ccc4c(c3)OCO4)nc2c1 > 30 µM
Cc1ccsc1C(=O)OCC(=O)N1C(C)CCCC1C (centres undefined) > 30 µM
Cc1ccc(N2CC(C(=O)Nc3nccs3)CC2=O)cc1 (centres undefined) > 30 µM
CN(C)c1ccc(/C=N/NC(=O)c2ccccc2Cl)cc1 > 30 µM
C=CCNc1nc(N)c(C(=O)Nc2cc(C)on2)s1 > 30 µM
COC(=O)c1ccc2c(=O)[nH]c(COC(=O)c3cccc(S(=O)(=O)N4CCOCC4)c3)nc2c1 > 30 µM
O=C(NCc1ccccc1)c1ccc2c(=O)[nH]c3c(C(=O)NCC4CCCO4)sc(=S)n3c2c1 (centres undefined) > 30 µM
CC(OC(=O)c1cccc(N2C(=O)c3ccccc3C2=O)c1)C(=O)Nc1ccc(N(C)C)cc1 (centres undefined) > 30 µM
COCCCNc1nc2ccccc2[nH]c1=O > 30 µM
COc1ccc(NC(=O)c2ccc(NCCCN3CCOCC3)c([N+](=O)[O-])c2)cc1 > 30 µM
O=C(CSc1ccccn1)Nc1nc2ccc(Br)cc2s1 > 30 µM
CCC(C)[C@H](NC(=O)Nc1ccc(S(N)(=O)=O)cc1)C(=O)O (some centres undefined) > 30 µM
CSc1ccc(/C=N/NC(=O)c2ccccc2Cl)cc1 > 30 µM
Cc1ccccc1OCCSc1nnc(C)n1-c1ccccc1 > 30 µM
CCC(=O)/C=C1\Sc2ccc(OC)cc2N1CC > 30 µM
COc1ccccc1NC(=O)c1cc(Cl)ccc1NC(=O)c1ccco1 > 30 µM
CN(Cc1c(C(=O)N/N=C/c2ccc(F)cc2)nnn1-c1nonc1N)C1CCCCC1 > 30 µM
CC(C)COC(=O)N1CCCC1C(=O)Nc1nccs1 (centres undefined) > 30 µM
CCCCC(NS(=O)(=O)c1ccc(OC)cc1)C(=O)O (centres undefined) > 30 µM
Fc1ccc(-c2nc3n(n2)Cc2ccccc2-3)cc1 > 30 µM
COc1ccccc1Nc1nc(Cl)c(C=O)s1 > 30 µM
COc1ccccc1N=c1oc2cc(O)ccc2cc1C(N)=O > 30 µM
CN(C)c1ccc(CN2CCCCC2)cc1 > 30 µM
CCN(CC)C(=O)c1oc2ccc(S(=O)(=O)N3CCCCCC3)cc2c1C > 30 µM
Cc1cc(N/N=C/c2ccccc2Br)nc2ccccc12 > 30 µM
C#CCOCCOCCOCCNc1nc(N2CCOCC2)nc(N2CCN(C(=O)[C@H](CCC(=O)O)n3cc([C@@H](N)CCCCN)nn3)CC2)n1 > 30 µM
C=CCNC(=S)N/N=C(\C)c1ccc(OC)cc1 > 30 µM
COc1ccc(-c2nsc3c(N4CCCCC4C)ncnc23)cc1 (centres undefined) > 30 µM
COC(=O)C1=C(C(=O)OC)C(c2cc(Cl)ccc2O)c2sc(=O)[nH]c2S1 (centres undefined) > 30 µM
Oc1ccc(-c2csc(Nc3ccccn3)n2)c(O)c1 > 30 µM
CCOC(=O)c1oc2ccc3c(c2c1C)C(=O)CC1(CCN(C(=O)OCC)CC1)O3 > 30 µM
Brc1ccccc1C1=Nn2c(nnc2-c2ccco2)SC1 > 30 µM
CC(C)NC(=O)c1sc2nc3c(c(-c4cccs4)c2c1N)CN(C)CC3 > 30 µM
Cc1cc(NC(=O)COC(=O)c2cc(S(=O)(=O)N3CCOCC3)ccc2N2CCCCC2)no1 > 30 µM
CCn1c2ccc(F)cc2c2nc3ccccc3nc21 > 30 µM
COC(=O)c1c(C)c(OC(=O)c2c(C)cc(O)c(C=O)c2O)cc(C)c1O > 30 µM

Random excerpt: 2 compounds from above
AC50, inactive:
CCOC(=O)c1cc(CC)sc1NC(=O)C1CC1 > 30 µM
CCc1ccc(/C=N/NC(=O)c2nnn(-c3nonc3N)c2C(C)C)cc1 > 30 µM

Some of these compounds in order of formula weight, rising:
AC50, inactive:
CC(=O)Nc1sc2c(c1C(N)=O)CCCC2 > 30 µM
N#CC1=C2SCN(Cc3ccccc3)CN2C(=O)CC1c1ccccc1F (centres undefined) > 30 µM
C#CCOCCOCCOCCNc1nc(N2CCOCC2)nc(N2CCN(C(=O)[C@H](CCC(=O)O)n3cc([C@@H](N)CCCCN)nn3)CC2)n1 > 30 µM
